# According to PubChem BioAssay AID504834 (National Center for Advancing Translational Sciences (NCATS), 2011):
# The campaign covered roughly 320,000 compounds. About 22,000 (6.9%) were called active. Inconclusive results, whose numbers are uncertain, are shown with a selection of clear calls. The call rests on the fitted dose curve; in most records, active means well fitted inhibition curve with a large enough effect; inconclusive means small, poorly fitted or top-dose-only effect, or another doubt; inactive means no such curve, though single readings can be large or run the other way. Where the call is inconclusive, the potency comes from a doubtful curve fit.
# Experiment: Primary qHTS for delayed death inhibitors of the malarial parasite plastid, 96 hour incubation
# Conditions: P. falciparum luciferase reporter growth; series mostly up to 28.7 µM; activity change, negative = inhibition: at the top concentration
# Summary of the method: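 Plates of compound plus infected erythrocytes (2% hematocrit, 0.05% parasitemia final) incubate 96 hours, 37 C, 5% CO2. Detection reagent added; reduced luminescence from the parasites' luciferase reporter flags inhibition.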
# On the % scale 0 is the no-effect control and ±100 the full control effect; potency means the concentration at half of the fitted maximal effect.
Compound,Potency,"activity change, negative = inhibition"
CSCC[C@H](NC(=O)[C@H](Cc1ccccc1)n1c(=O)[nH]c2ccccc2c1=O)C(=O)N1CCC(C(=O)O)CC1,"inconclusive: 6.57 µM [inhibitor, partial curve, poor fit]",
Nc1nc(Nc2ccccc2)nc(NCCO)c1[N+](=O)[O-],"inconclusive: 1.31 µM [inhibitor, partial curve, poor fit]",
CNC(=O)CN1C(=O)COc2ccc(S(=O)(=O)N3CCCCCC3)cc21,,inactive: 12%
O=C1CCc2cc(S(=O)(=O)Nc3ccccc3)cc3c2N1CC3,"inconclusive: 0.465 µM [inhibitor, full curve, poor fit]",
CCN(CC(=O)Nc1ccc2c(c1)OCCO2)C(=O)c1cccc(S(=O)(=O)N2CCOCC2)c1,"inconclusive: 18.5 µM [inhibitor, single point]",
O=C(NCc1ccc(Cl)cc1Cl)C(=O)N1CCCCC1,,inactive: -3.86%
COc1ccc(OC)c(S(=O)(=O)Nc2ccc(CC(=O)O)cc2)c1,active: 13.1 µM,
CNC(=S)Nc1ccccc1-c1ccccc1,"inconclusive: 18.5 µM [inhibitor, single point]",
COCCN1CN=C(Nc2nc(C)c3ccc(C)cc3n2)NC1,,inactive: 2.97%
O=C(NC1CCCC1)C(c1ccco1)N(C(=O)c1ccco1)c1ccc(F)cc1 (configuration not stated),"inconclusive: 13.1 µM [inhibitor, partial curve]",
CC(=O)c1ccc(NC(=O)c2ccc([N+](=O)[O-])o2)cc1,,inactive: 3.39%
Cc1ccc(NC(=S)N(CCCN(C)C)Cc2cc3cc4c(cc3[nH]c2=O)OCO4)c(C)c1,"inconclusive: 18.5 µM [inhibitor, single point]",
Cc1cccc(/C=C/C(=O)c2ccc(NC3=NCCCS3)cc2)c1,,inactive: 33.7%
O=[N+]([O-])c1cc(Cl)cc(/C=N/NC(=S)Nc2cc(S(=O)(=O)N3CCOCC3)ccc2Cl)c1O,"inconclusive: 0.262 µM [inhibitor, full curve, poor fit]",
CCc1noc(C)c1C(=O)NC1CC(C)(C)Cc2c1cnn2-c1ccccc1 (configuration not stated),active: 9.28 µM,
CCOCc1nnc(NC(=O)c2cc(OC)c(OC)c(OC)c2)s1,"inconclusive: 10.4 µM [inhibitor, partial curve]",
COC(=O)c1ccc(NC(=O)CCN2CCCCC2)cc1,active: 1.47 µM,
CC(Oc1cccc(Cl)c1)C(=O)Nc1nc(-c2ccccn2)cs1 (configuration not stated),active: 2.62 µM,
COc1cc(N=Cc2c(O)[nH]c3ccccc23)cc(OC)c1OC,"inconclusive: 18.5 µM [inhibitor, single point]",
CC(=O)Nc1ccc(C#Cc2ccc(NC(C)=O)cc2)cc1,,inactive: 72.1%
O=Cc1ccc(-c2cc(Cl)ccc2Cl)[nH]1,,inactive: 6.28%
CCCc1nc(SCC(=O)N2c3ccccc3CC2C)c2c(C)c(C)sc2n1 (configuration not stated),"inconclusive: 11.7 µM [inhibitor, single point]",
COC(=O)CC1(C(=O)OC)Oc2ccc(Br)cc2C(=O)N1c1cc(Cl)cc(Cl)c1 (configuration not stated),active: 9.28 µM,
CCOC(=O)c1c(S(=O)(=O)N(C)C2CCCCC2)c(C)n(C)c1C,"inconclusive: 10.4 µM [inhibitor, single point]",

Compound,Potency,"activity change, negative = inhibition"
Nc1nonc1-n1nnc(C(=O)N/N=C/c2cccc(F)c2)c1-c1ccc2c(c1)OCO2,active: 0.0657 µM,
COc1cc(C(=O)OC2CCCCC2=O)cc(OC)c1C (configuration not stated),"inconclusive: 18.5 µM [inhibitor, single point]",
COc1ccc(N2CCN(C(=O)CSc3ncnc4c3cnn4-c3ccccc3C)CC2)cc1,active: 6.57 µM,
COc1ccc(COc2ccc3c(C)cc(=O)oc3c2)cc1,"inconclusive: 1.85 µM [inhibitor, partial curve, poor fit]",
COc1ccc(CCN2C(=O)c3[nH]nc(-c4ccccc4O)c3C2c2cccc(O)c2)cc1OC (configuration not stated),active: 13.1 µM,
O=C(O)c1cccc(S(=O)(=O)Nc2ccc3c(c2)CCC3)c1,active: 4.15 µM,
Cc1nc2ccccc2c2oc(C(=O)Nc3ccc4c(c3)OCCO4)cc12,"inconclusive: 0.828 µM [inhibitor, full curve, poor fit]",
Cc1ccccc1N=Nc1c(N)n[nH]c1N,active: 2.94 µM,
O=C(Nc1ccc(Br)cc1)c1cc(-c2ccc3c(c2)OCO3)on1,"inconclusive: 5.22 µM [inhibitor, partial curve]",
CCOc1ccccc1NC(=O)Nc1ccc(Br)cc1C,,inactive: 25%
COc1ccccc1N1CCN(Cc2ccccc2F)CC1,"inconclusive: 18.5 µM [inhibitor, single point]",
Cn1[nH]c(=O)c2ccccc2c1=O,,inactive: -11.1%
CS(=O)(=O)c1ccc2c(c1)sc1nc(=O)c(/C=C3/C=CC(=O)C(O)=C3)c(N)n12,"inconclusive: 14.7 µM [inhibitor, partial curve]",
C/C(=N\Nc1ccc([N+](=O)[O-])cc1)c1ccc(-n2nncc2C)cc1,,inactive: 3.89%
COc1ccc(Nc2nc(-c3ccccc3)nc3ccccc23)cc1S(=O)(=O)N1CCOCC1,active: 13.1 µM,
CCOC(=O)c1nc2sc(C)c(C)c2c(=O)[nH]1,"inconclusive: 4.15 µM [inhibitor, partial curve]",
COc1ccc(C(=O)NCc2nnc(SCC(=O)Nc3cc(C)cc(C)c3)o2)cc1OC,,inactive: 74.4%
CN(Cc1cccs1)C(=O)c1ccc(S(=O)(=O)NCc2ccco2)cc1,"inconclusive: 0.465 µM [inhibitor, full curve, poor fit]",
Cc1ccc(OC(C)C(=O)Nc2ccncc2)cc1C (configuration not stated),"inconclusive: 18.5 µM [inhibitor, single point]",
Cc1ccc(NC(=O)Cn2nc(-c3ccco3)ccc2=O)cc1Cl,"inconclusive: 11.7 µM [inhibitor, single point]",
O=C(NCCc1cccs1)C12CN(Cc3ccccc3)CC1C(c1cccc([N+](=O)[O-])c1)=NO2 (configuration not stated),"inconclusive: 9.28 µM [inhibitor, partial curve, poor fit]",
Cc1onc(-c2ccccc2Cl)c1C(=O)N/N=C(\N)COc1ccc(Cl)cc1,"inconclusive: 10.4 µM [inhibitor, single point]",
COc1cccc(CNC(=O)Cc2nc3nc(C)cc(C)n3n2)c1,"inconclusive: 11.7 µM [inhibitor, single point]",
O=C(Nc1nc2ccccc2n1CCN1CCCCC1)c1ccc(Cl)cc1,,inactive: 49.5%

# 20 neighbouring entries from above, quoted:
Compound,Potency,"activity change, negative = inhibition"
COC(=O)c1ccc(NC(=O)CCN2CCCCC2)cc1,active: 1.47 µM,
CC(Oc1cccc(Cl)c1)C(=O)Nc1nc(-c2ccccn2)cs1 (configuration not stated),active: 2.62 µM,
COc1cc(N=Cc2c(O)[nH]c3ccccc23)cc(OC)c1OC,"inconclusive: 18.5 µM [inhibitor, single point]",
CC(=O)Nc1ccc(C#Cc2ccc(NC(C)=O)cc2)cc1,,inactive: 72.1%
O=Cc1ccc(-c2cc(Cl)ccc2Cl)[nH]1,,inactive: 6.28%
CCCc1nc(SCC(=O)N2c3ccccc3CC2C)c2c(C)c(C)sc2n1 (configuration not stated),"inconclusive: 11.7 µM [inhibitor, single point]",
COC(=O)CC1(C(=O)OC)Oc2ccc(Br)cc2C(=O)N1c1cc(Cl)cc(Cl)c1 (configuration not stated),active: 9.28 µM,
CCOC(=O)c1c(S(=O)(=O)N(C)C2CCCCC2)c(C)n(C)c1C,"inconclusive: 10.4 µM [inhibitor, single point]",
Nc1nonc1-n1nnc(C(=O)N/N=C/c2cccc(F)c2)c1-c1ccc2c(c1)OCO2,active: 0.0657 µM,
COc1cc(C(=O)OC2CCCCC2=O)cc(OC)c1C (configuration not stated),"inconclusive: 18.5 µM [inhibitor, single point]",
COc1ccc(N2CCN(C(=O)CSc3ncnc4c3cnn4-c3ccccc3C)CC2)cc1,active: 6.57 µM,
COc1ccc(COc2ccc3c(C)cc(=O)oc3c2)cc1,"inconclusive: 1.85 µM [inhibitor, partial curve, poor fit]",
COc1ccc(CCN2C(=O)c3[nH]nc(-c4ccccc4O)c3C2c2cccc(O)c2)cc1OC (configuration not stated),active: 13.1 µM,
O=C(O)c1cccc(S(=O)(=O)Nc2ccc3c(c2)CCC3)c1,active: 4.15 µM,
Cc1nc2ccccc2c2oc(C(=O)Nc3ccc4c(c3)OCCO4)cc12,"inconclusive: 0.828 µM [inhibitor, full curve, poor fit]",
Cc1ccccc1N=Nc1c(N)n[nH]c1N,active: 2.94 µM,
O=C(Nc1ccc(Br)cc1)c1cc(-c2ccc3c(c2)OCO3)on1,"inconclusive: 5.22 µM [inhibitor, partial curve]",
CCOc1ccccc1NC(=O)Nc1ccc(Br)cc1C,,inactive: 25%
COc1ccccc1N1CCN(Cc2ccccc2F)CC1,"inconclusive: 18.5 µM [inhibitor, single point]",
Cn1[nH]c(=O)c2ccccc2c1=O,,inactive: -11.1%

# An excerpt from above in order of count of non-hydrogen atoms, smallest number first.
Compound,Potency,"activity change, negative = inhibition"
CN(Cc1cccs1)C(=O)c1ccc(S(=O)(=O)NCc2ccco2)cc1,"inconclusive: 0.465 µM [inhibitor, full curve, poor fit]",
Cc1nc2ccccc2c2oc(C(=O)Nc3ccc4c(c3)OCCO4)cc12,"inconclusive: 0.828 µM [inhibitor, full curve, poor fit]",
COc1ccc(C(=O)NCc2nnc(SCC(=O)Nc3cc(C)cc(C)c3)o2)cc1OC,,inactive: 74.4%

# (more compounds)

Compound,Potency,"activity change, negative = inhibition"
COC(=O)[C@@]1(Cc2ccc(F)cc2)[C@H]2c3cc(C(=O)N(C)C)n(C[C@H](O)CO)c3C[C@H]2CN1C(=O)c1ccccc1,"inconclusive: 18.5 µM [inhibitor, single point]",
Cc1cccn2c(=O)c3cc(C(=O)NC4CCCC4)c(=N)n(Cc4ccc(F)cc4)c3nc12,"inconclusive: 1.85 µM [inhibitor, full curve, poor fit]",
O=C(CCNS(=O)(=O)c1ccccc1C(F)(F)F)NCC(c1ccco1)N1CCCCC1 (configuration not stated),"inconclusive: 18.5 µM [inhibitor, single point]",
O=C(NCc1ccccc1)C(c1ccccc1)N(Cc1cccs1)C(=O)c1cnccn1 (configuration not stated),active: 0.262 µM,
CCOCC(O)CNc1ccccc1 (configuration not stated),"inconclusive: 11.7 µM [inhibitor, single point]",
CCCSc1nc2c(c(=O)n1CC)SC(C)C2 (configuration not stated),"inconclusive: 18.5 µM [inhibitor, single point]",
COc1ccc(Br)c(OC)c1C(=O)NC(=O)Nc1c(F)cccc1F,"inconclusive: 10.4 µM [inhibitor, single point]",
CC(C)CCNC(=O)C1CCN(S(=O)(=O)c2ccc3c(c2)CC(C)N3C(=O)C2CCC2)CC1 (configuration not stated),"inconclusive: 11.7 µM [inhibitor, single point]",
CC(Nc1ccc(F)cc1)=[N+](C)CCNS(=O)(=O)c1ccc(Cl)cc1,,inactive: 2.06%
CCCOc1ccc2c(=O)c(-c3cc(C(=O)OC)oc3C)c(C)oc2c1,"inconclusive: 18.5 µM [inhibitor, single point]",
COC(=O)N/N=C/c1cn(Cc2ccc(F)cc2)c2ccccc12,,inactive: -7.48%
O=C(CNC(=S)N(Cc1ccc(F)cc1)C1CCCCC1)NCC1CCCO1 (configuration not stated),"inconclusive: 1.47 µM [inhibitor, full curve]",
CCOC(=O)c1c(NC(=O)COC(=O)c2nccnc2N)sc2c1CCC2,"inconclusive: 0.0029 µM [inhibitor, full curve, poor fit]",
CCCCCc1cc(=O)oc2c(C(CCN(CC)CC)c3ccc(OC)cc3)c(OC)cc(OC)c12 (configuration not stated),active: 1.85 µM,
Cc1cccc(NC(=O)c2ccc(F)c(S(=O)(=O)NCc3ccco3)c2)c1,"inconclusive: 13.1 µM [inhibitor, single point]",
O=C(CSc1cccc2cccc(Cl)c12)NCc1cccs1,,inactive: -14.6%
Cc1ccc(NC(=O)CCc2nnc3ccc(N4CCC(C)CC4)nn23)nc1,"inconclusive: 18.5 µM [inhibitor, single point]",
CC(=O)Nc1ccc(NC(=O)C(C)OC(=O)CSCc2cccc(Cl)c2)cc1 (configuration not stated),,inactive: 19.8%
COc1ccc(OCCC(=O)NC2=NCCS2)cc1,,inactive: 8.01%
Cc1ccc(/C=C2\SC(=S)N(CCC(=O)Nc3ccc(O)cc3)C2=O)cc1,,inactive: 46.5%
COC(=O)Cc1ccc(NC(=S)Nc2ccc(N3CCOCC3)cc2)cc1,"inconclusive: 10.4 µM [inhibitor, partial curve, poor fit]",
CC1=C([N+](=O)[O-])C(c2ccc(O)c(O)c2)NC(=O)N1 (configuration not stated),"inconclusive: 9.28 µM [inhibitor, single point]",
Cn1c(=O)n(C)c2cc(/C=N/n3cnnc3)ccc21,active: 5.86 µM,
CCOC(=O)C1CCN(Cc2ccc(OC)cc2OC)CC1,"inconclusive: 18.5 µM [inhibitor, single point]",
